{
  "source": "PubChem BioAssay AID1347426",
  "about": "(Functional Genomics Laboratory (NCATS/FGL), 2020)",
  "note": "Screen size: about 31,000 sequences; about 1,400 (4.5%) were called active.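 How the source made its calls: active means median seed-adjusted z-score above 1 or below -1; inactive means the rest.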 The list shows a part of the results.",
  "data": [
    {"test": "Novel Modifiers of Survival Motor Neuron (SMN) Protein: Gene Identification via Genome-wide siRNA Screen;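 further: luminescence tracks full-length SMN protein made from the SMN2 reporter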", "conditions": "HEK293T SMN2-luciferase reporter, siRNA knockdown, 72 h; actives lie on both sides", "how_it_was_run": "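siRNA screen, 10418 genes ×3 siRNAs; 1 pmol/well, lipid reverse transfection into HEK293T SMN2-luc reporter line. 72 h, 37 °C, 5% CO2; ONE-Glo readout. Data: neg-ctrl normalized, log10, MAD; hit = MAD >1.0 or < -1.0.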", "values": [
      {"sequence": "GGACGAGCAGCUACAGAAATT against CLTA", "median seed-adjusted z-score": "inactive: 0.243"},
      {"sequence": "CGACAGCUAUAUCCGCUUUTT against TTLL3", "median seed-adjusted z-score": "inactive: -0.194"},
      {"sequence": "GGCUUAUCCAUGCUAUAUATT against GCNT4", "median seed-adjusted z-score": "inactive: -0.0629"},
      {"sequence": "GCAGCACCGUGAAGACGAATT against ELA2B", "median seed-adjusted z-score": "inactive: -0.154"},
      {"sequence": "GGAUGUAAGGCAUAUUGGATT against ZNF674", "median seed-adjusted z-score": "inactive: 0.234"},
      {"sequence": "AUACAGAUCUAAUAGAGUUTT against NAT1", "median seed-adjusted z-score": "inactive: -0.0665"},
      {"sequence": "CCUCAUAAGUGUAAGAUAUTT against ZNF799", "median seed-adjusted z-score": "active: -1.02"},
      {"sequence": "GCGGGUGACUGAACUUGAATT against HOMER1", "median seed-adjusted z-score": "inactive: 0"},
      {"sequence": "GCGUAAUGUUUGUGACAAATT against ZNF782", "median seed-adjusted z-score": "inactive: 0.117"},
      {"sequence": "CACCCUAAUGGAUACAGCUTT against NTSR2", "median seed-adjusted z-score": "inactive: -0.125"},
      {"sequence": "GCAAGGUUCCUAGCGUGUATT against VCAM1", "median seed-adjusted z-score": "inactive: 0.19"},
      {"sequence": "GCUUUUAACAAUUCCUCAATT against ZNF99", "median seed-adjusted z-score": "inactive: 0.0778"},
      {"sequence": "UACCAGAUCUCAAAAAGAATT against CCR5", "median seed-adjusted z-score": "inactive: -0.0281"},
      {"sequence": "GGAGAGUUCAAAGACCUAATT against PRDX3", "median seed-adjusted z-score": "inactive: -0.0659"},
      {"sequence": "GGCUGAGUUUUGACACCAATT against CIRBP", "median seed-adjusted z-score": "inactive: -0.701"},
      {"sequence": "GGAGGGCCUGUAACGUGUUTT against AKR1B10", "median seed-adjusted z-score": "inactive: 0"},
      {"sequence": "CACAGUGUUUGAGAACUAUTT against RHOA", "median seed-adjusted z-score": "inactive: -0.219"},
      {"sequence": "CCACAUUGGUUACCACUAATT against ITGAV", "median seed-adjusted z-score": "active: 1.17"},
      {"sequence": "ACGUGGCCGUUAUCCACAATT against NFKBIB", "median seed-adjusted z-score": "inactive: 0.00673"},
      {"sequence": "GUAUCGGGAUUGUUAAUGATT against RNF111", "median seed-adjusted z-score": "inactive: -0.0687"},
      {"sequence": "GGAGUGUCAUGUAUAGCAUTT against CYP26B1", "median seed-adjusted z-score": "inactive: -0.213"},
      {"sequence": "GCCUUAUGAAGAGUACCUATT against LAMA1", "median seed-adjusted z-score": "inactive: 0.494"},
      {"sequence": "GCACUACUCCGAGAAGUUATT against NEK6", "median seed-adjusted z-score": "inactive: -0.674"},
      {"sequence": "ACAUCUAUUUGUGACCUUATT against NHLH2", "median seed-adjusted z-score": "inactive: 0"},
      {"sequence": "GUAUGGAGUUACCACAAUATT against PTP4A1", "median seed-adjusted z-score": "inactive: 0.103"},
      {"sequence": "CUCUGGAAAUGUAACCCAUTT against SLC1A4", "median seed-adjusted z-score": "inactive: 0.209"},
      {"sequence": "CCUUAGACCGGGAACAACATT against PCDHGB5", "median seed-adjusted z-score": "inactive: 0.464"},
      {"sequence": "CCCGUUAAAUAAUUCCCUATT against FXYD3", "median seed-adjusted z-score": "inactive: 0.254"},
      {"sequence": "GAGAUUAGAUAGAUUCAAATT against PPP3CB", "median seed-adjusted z-score": "inactive: 0.0225"},
      {"sequence": "GAACAAUCAGUGGAUUAUATT against IL2RG", "median seed-adjusted z-score": "inactive: -0.155"},
      {"sequence": "GACUUAACCAAGAGACGUATT against THOC2", "median seed-adjusted z-score": "active: -1.22"},
      {"sequence": "GGACCUCAUUUGCAAUCUUTT against RNF139", "median seed-adjusted z-score": "inactive: 0.175"},
      {"sequence": "GAUGCAGCUGUAUCCAAGATT against PML", "median seed-adjusted z-score": "inactive: -0.415"},
      {"sequence": "GCUUUCACAUAAAACCCAATT against ZNF254", "median seed-adjusted z-score": "inactive: 0.088"},
      {"sequence": "CUUUCACACUCGACACUGATT against HOXA2", "median seed-adjusted z-score": "inactive: 0.335"},
      {"sequence": "CCGUAUUUUAUCAAGCUAATT against UNG", "median seed-adjusted z-score": "inactive: 0.259"},
      {"sequence": "AGGAAGUCAGGAAUUCUAATT against SEBOX", "median seed-adjusted z-score": "inactive: 0.2"},
      {"sequence": "GCAAGGAGUCUAUCCAUGATT against RPS6KB2", "median seed-adjusted z-score": "inactive: 0"},
      {"sequence": "GGAACACUAUAGUAAAGGUTT against SELI", "median seed-adjusted z-score": "inactive: 0"},
      {"sequence": "GAAAGUCCAGAUGAGGAUATT against KLF9", "median seed-adjusted z-score": "inactive: 0.767"},
      {"sequence": "CCUUCUGGGUGUUAUGGAATT against DUT", "median seed-adjusted z-score": "inactive: -0.0833"},
      {"sequence": "GUGCUAAAGAUCAUUGAUATT against TRIM32", "median seed-adjusted z-score": "inactive: 0.109"},
      {"sequence": "CCCUCACCCUGGUGUUUGATT against PCTK3", "median seed-adjusted z-score": "inactive: 0"},
      {"sequence": "CGAUUGUUUUUGCCUAUUUTT against SV2B", "median seed-adjusted z-score": "inactive: -0.43"},
      {"sequence": "GACUGUGAGAUAAUUGAAATT against ZBTB6", "median seed-adjusted z-score": "inactive: -0.225"},
      {"sequence": "GGACUACAGGGAUACCGAATT against AASDH", "median seed-adjusted z-score": "inactive: 0.156"},
      {"sequence": "GGACUUGACGAAAGUAACATT against TRPC6", "median seed-adjusted z-score": "inactive: -0.527"},
      {"sequence": "CCCUGAUAAUGUUUGAUAATT against COQ6", "median seed-adjusted z-score": "inactive: -0.0116"},
      {"sequence": "GUCUCUACAAAAUCUCUAATT against GPR137B", "median seed-adjusted z-score": "inactive: -0.0897"},
      {"sequence": "AGGAAUUUCUGCGAGAAAATT against CCDC88B", "median seed-adjusted z-score": "inactive: -0.153"},
      {"sequence": "CUCGCUCACUGGUGAAUCATT against ATP1A1", "median seed-adjusted z-score": "inactive: 0.271"},
      {"sequence": "CAGUGAAUCUCCAUAAACATT against ZNF382", "median seed-adjusted z-score": "inactive: 0.601"},
      {"sequence": "CCCUAUGAGUACGAGCUGATT against CACNA1B", "median seed-adjusted z-score": "inactive: 0.0963"},
      {"sequence": "GUGCAAAAGUAGAAGUCCATT against TBCEL", "median seed-adjusted z-score": "inactive: 0.567"},
      {"sequence": "CCUUCGAUGCUUCACUUUUTT against NSUN4", "median seed-adjusted z-score": "inactive: -0.491"},
      {"sequence": "CUACAGUUCCACAACUUCATT against MFRP", "median seed-adjusted z-score": "inactive: -0.209"},
      {"sequence": "GAAUCCAGAGUACAAUAUATT against PCDHGB4", "median seed-adjusted z-score": "inactive: 0.176"},
      {"sequence": "GCCUAUUACCAGUUGAAGATT against LEPREL2", "median seed-adjusted z-score": "inactive: 0.0022"},
      {"sequence": "GAAUGAACCUCUCUCCAAUTT against YWHAH", "median seed-adjusted z-score": "inactive: -0.125"},
      {"sequence": "CGACAUCCCUGAUAUCCGUTT against FARS2", "median seed-adjusted z-score": "inactive: 0.587"},
      {"sequence": "GGGAACUUCUUGGAACUUUTT against KLK12", "median seed-adjusted z-score": "inactive: 0.243"},
      {"sequence": "GGUCGAUCACAAUCAACAATT against LIFR", "median seed-adjusted z-score": "inactive: 0.031"},
      {"sequence": "GGAAGAUUUAGGAUUCAGATT against OSBPL2", "median seed-adjusted z-score": "inactive: 0"},
      {"sequence": "GGAUGACAUUAGCCUAACATT against PRSS7", "median seed-adjusted z-score": "inactive: 0.0614"},
      {"sequence": "ACCUAGUGCUGGAACGGUATT against GPR119", "median seed-adjusted z-score": "inactive: -0.382"},
      {"sequence": "CAUGCUCCUUUAUCUCCGATT against F5", "median seed-adjusted z-score": "inactive: -0.127"},
      {"sequence": "GCGACGGAUUGGUUUAGAATT against SNX4", "median seed-adjusted z-score": "inactive: -0.144"},
      {"sequence": "AGGUGAAACUUCGAAGACATT against TRPM3", "median seed-adjusted z-score": "inactive: -0.633"},
      {"sequence": "GACUAGCUAUUACAAAAGATT against ARL5B", "median seed-adjusted z-score": "inactive: -0.506"}
    ]}
  ]
}
